Data source: PubChem BioAssay AID1224830 (NIAID, 2016)
Shown is an unselected part of about 18,000 reagents. About 2,900 of all reagents (16%) were called active. 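Calls are made per well; low scores hint the gene aids the LPS response, high scores that it dampens it.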 Repeated entries: four replicate wells of each siRNA pool.

Test: 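Host factors that control LPS-induced TNF expression in human macrophages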 (primary screen)
System: human THP-1 monocytic leukaemia cells, TNF dual-luciferase reporter clone, PMA-differentiated to macrophage-like cells
Reagent: siRNA pool against human genes, 50 nM
Duration: LPS for 4 h, given about 3 days after siRNA transfection
Challenge: bacterial LPS (TLR4 ligand), 10 ng/ml
Measurement: 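TNF firefly reporter luminescence divided by renilla, normalised to the plate median, then turned into a robust z-score for each replicate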
Scale: TNF reporter robust z-score: higher = stronger TNF reporter response to LPS
Call rule: 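a well is active when its z-score exceeds 2.8 or falls below -1.5; control wells carry no call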

gene	TNF reporter robust z-score	outcome
TVP23A (trans-golgi network vesicle protein 23 homolog A)	-0.24	inactive
TVP23A (trans-golgi network vesicle protein 23 homolog A)	0.26	inactive
TVP23A (trans-golgi network vesicle protein 23 homolog A)	-1.37	inactive
TVP23A (trans-golgi network vesicle protein 23 homolog A)	-0.65	inactive
USP17L2 (ubiquitin specific peptidase 17 like family member 2)	-0.7	inactive
USP17L2 (ubiquitin specific peptidase 17 like family member 2)	1.33	inactive
USP17L2 (ubiquitin specific peptidase 17 like family member 2)	0.01	inactive
USP17L2 (ubiquitin specific peptidase 17 like family member 2)	0.49	inactive
TCN1 (transcobalamin 1)	-1.13	inactive
TCN1 (transcobalamin 1)	-1.69	active
TCN1 (transcobalamin 1)	-1.34	inactive
TCN1 (transcobalamin 1)	-1.52	active
PYHIN1 (pyrin and HIN domain family member 1)	-0.9	inactive
PYHIN1 (pyrin and HIN domain family member 1)	-0.03	inactive
PYHIN1 (pyrin and HIN domain family member 1)	0.02	inactive
PYHIN1 (pyrin and HIN domain family member 1)	-0.15	inactive
PTPN12 (protein tyrosine phosphatase non-receptor type 12)	-0.74	inactive
PTPN12 (protein tyrosine phosphatase non-receptor type 12)	-0.62	inactive
PTPN12 (protein tyrosine phosphatase non-receptor type 12)	-0.03	inactive
PTPN12 (protein tyrosine phosphatase non-receptor type 12)	-0.51	inactive
FAM229B (family with sequence similarity 229 member B)	0.04	inactive
FAM229B (family with sequence similarity 229 member B)	0.46	inactive
FAM229B (family with sequence similarity 229 member B)	0.51	inactive
FAM229B (family with sequence similarity 229 member B)	1.38	inactive
NF2 (NF2, moesin-ezrin-radixin like (MERLIN) tumor suppressor)	0.86	inactive
NF2 (NF2, moesin-ezrin-radixin like (MERLIN) tumor suppressor)	0.71	inactive
NF2 (NF2, moesin-ezrin-radixin like (MERLIN) tumor suppressor)	0.39	inactive
NF2 (NF2, moesin-ezrin-radixin like (MERLIN) tumor suppressor)	-0.69	inactive
PORCN (porcupine O-acyltransferase)	-0.55	inactive
PORCN (porcupine O-acyltransferase)	-0.48	inactive
PORCN (porcupine O-acyltransferase)	-0.68	inactive
PORCN (porcupine O-acyltransferase)	-0.19	inactive
PREX1	1.95	inactive
PREX1	2.11	inactive
PREX1	1.83	inactive
BAD (BCL2 associated agonist of cell death)	-1.69	active
BAD (BCL2 associated agonist of cell death)	-0.55	inactive
BAD (BCL2 associated agonist of cell death)	-0.2	inactive
BAD (BCL2 associated agonist of cell death)	0.59	inactive
PNLIP (pancreatic lipase)	-1.26	inactive
PNLIP (pancreatic lipase)	-0.07	inactive
PNLIP (pancreatic lipase)	-0.76	inactive
PNLIP (pancreatic lipase)	-0.61	inactive
UBE2L3 (ubiquitin conjugating enzyme E2 L3)	-0.33	inactive
UBE2L3 (ubiquitin conjugating enzyme E2 L3)	0.83	inactive
UBE2L3 (ubiquitin conjugating enzyme E2 L3)	1.49	inactive
UBE2L3 (ubiquitin conjugating enzyme E2 L3)	-0.04	inactive
ACER2 (alkaline ceramidase 2)	0.04	inactive
ACER2 (alkaline ceramidase 2)	0.72	inactive
ACER2 (alkaline ceramidase 2)	0.08	inactive
ACER2 (alkaline ceramidase 2)	0.16	inactive
ITIH3 (inter-alpha-trypsin inhibitor heavy chain 3)	-0.54	inactive
ITIH3 (inter-alpha-trypsin inhibitor heavy chain 3)	-0.35	inactive
ITIH3 (inter-alpha-trypsin inhibitor heavy chain 3)	-1.25	inactive
ITIH3 (inter-alpha-trypsin inhibitor heavy chain 3)	-0.44	inactive
CDKN2C (cyclin dependent kinase inhibitor 2C)	1.03	inactive
CDKN2C (cyclin dependent kinase inhibitor 2C)	0.69	inactive
CDKN2C (cyclin dependent kinase inhibitor 2C)	0.4	inactive
CDKN2C (cyclin dependent kinase inhibitor 2C)	0.37	inactive
SRP19 (signal recognition particle 19)	2.35	inactive
SRP19 (signal recognition particle 19)	1.75	inactive
SRP19 (signal recognition particle 19)	1.98	inactive
SRP19 (signal recognition particle 19)	-0.07	inactive
IDS (iduronate 2-sulfatase)	-0.9	inactive
IDS (iduronate 2-sulfatase)	-0.62	inactive
IDS (iduronate 2-sulfatase)	-0.54	inactive
IDS (iduronate 2-sulfatase)	0.8	inactive
RLBP1 (retinaldehyde binding protein 1)	-0.23	inactive
RLBP1 (retinaldehyde binding protein 1)	0.6	inactive
RLBP1 (retinaldehyde binding protein 1)	-0.52	inactive
RLBP1 (retinaldehyde binding protein 1)	0.17	inactive
WDR73 (WD repeat domain 73)	0.09	inactive
WDR73 (WD repeat domain 73)	-0.14	inactive
WDR73 (WD repeat domain 73)	0.31	inactive
WDR73 (WD repeat domain 73)	0.22	inactive
ESYT3 (extended synaptotagmin 3)	-0.83	inactive
ESYT3 (extended synaptotagmin 3)	-1.01	inactive
ESYT3 (extended synaptotagmin 3)	-1.11	inactive
ESYT3 (extended synaptotagmin 3)	-0.66	inactive
TM6SF1 (transmembrane 6 superfamily member 1)	-0.43	inactive
TM6SF1 (transmembrane 6 superfamily member 1)	0.44	inactive
TM6SF1 (transmembrane 6 superfamily member 1)	0.93	inactive
TM6SF1 (transmembrane 6 superfamily member 1)	0.81	inactive
SBNO2 (strawberry notch homolog 2)	-0.06	inactive
SBNO2 (strawberry notch homolog 2)	-0.3	inactive
SBNO2 (strawberry notch homolog 2)	0.45	inactive
SBNO2 (strawberry notch homolog 2)	-0.28	inactive
TAAR2 (trace amine associated receptor 2)	-0.69	inactive
TAAR2 (trace amine associated receptor 2)	-0.3	inactive
TAAR2 (trace amine associated receptor 2)	0.4	inactive
TAAR2 (trace amine associated receptor 2)	0.19	inactive
B3GNT4	0.1	inactive
B3GNT4	0.67	inactive
B3GNT4	1.57	inactive
B3GNT4	0.62	inactive
CHST12 (carbohydrate sulfotransferase 12)	-1.23	inactive
CHST12 (carbohydrate sulfotransferase 12)	-1.55	active
CHST12 (carbohydrate sulfotransferase 12)	-1.73	active
GDA (guanine deaminase)	-1.18	inactive
GDA (guanine deaminase)	-1.11	inactive
GDA (guanine deaminase)	-0.47	inactive
TMEM97 (transmembrane protein 97)	1.48	inactive
TMEM97 (transmembrane protein 97)	1.42	inactive
TMEM97 (transmembrane protein 97)	0.15	inactive
TMEM97 (transmembrane protein 97)	0.52	inactive
AFDN-DT (AFDN divergent transcript)	0.78	inactive
AFDN-DT (AFDN divergent transcript)	1.36	inactive
AFDN-DT (AFDN divergent transcript)	0.59	inactive
AFDN-DT (AFDN divergent transcript)	0.95	inactive
INTS6L (integrator complex subunit 6 like)	2.58	inactive
INTS6L (integrator complex subunit 6 like)	2.56	inactive
INTS6L (integrator complex subunit 6 like)	1.25	inactive
INTS6L (integrator complex subunit 6 like)	1.09	inactive

In a second layout: entries from further up
PREX1 | TNF reporter robust z-score: 2.11; outcome: inactive
PREX1 | TNF reporter robust z-score: 1.83; outcome: inactive
BAD (BCL2 associated agonist of cell death) | TNF reporter robust z-score: -1.69; outcome: active
BAD (BCL2 associated agonist of cell death) | TNF reporter robust z-score: -0.55; outcome: inactive
BAD (BCL2 associated agonist of cell death) | TNF reporter robust z-score: -0.2; outcome: inactive
BAD (BCL2 associated agonist of cell death) | TNF reporter robust z-score: 0.59; outcome: inactive
PNLIP (pancreatic lipase) | TNF reporter robust z-score: -1.26; outcome: inactive
